Source: publication PMC2923609
No constants are given. Whether binding was seen depends on the method and setting. In cells and extracts the contact can be indirect. For some assays here: Binding can be weak; no strength is given. Tags and fused reporters may be left off the sequences shown.

Experiments:
[1] = target: T1, periostin-Myc (UniProt Q62009); assay: co-IP; whole-cell lysates of HEK293T cells co-expressing Notch1-FLAG and periostin-Myc; precipitated with anti-Myc antibody, blotted with anti-Notch1 (extracellular region) antibody; lysis buffer 150 mM NaCl, 100 mM Tris-Cl pH 7.4, 1% Triton X-100, 0.5% NP-40
T1 sequence: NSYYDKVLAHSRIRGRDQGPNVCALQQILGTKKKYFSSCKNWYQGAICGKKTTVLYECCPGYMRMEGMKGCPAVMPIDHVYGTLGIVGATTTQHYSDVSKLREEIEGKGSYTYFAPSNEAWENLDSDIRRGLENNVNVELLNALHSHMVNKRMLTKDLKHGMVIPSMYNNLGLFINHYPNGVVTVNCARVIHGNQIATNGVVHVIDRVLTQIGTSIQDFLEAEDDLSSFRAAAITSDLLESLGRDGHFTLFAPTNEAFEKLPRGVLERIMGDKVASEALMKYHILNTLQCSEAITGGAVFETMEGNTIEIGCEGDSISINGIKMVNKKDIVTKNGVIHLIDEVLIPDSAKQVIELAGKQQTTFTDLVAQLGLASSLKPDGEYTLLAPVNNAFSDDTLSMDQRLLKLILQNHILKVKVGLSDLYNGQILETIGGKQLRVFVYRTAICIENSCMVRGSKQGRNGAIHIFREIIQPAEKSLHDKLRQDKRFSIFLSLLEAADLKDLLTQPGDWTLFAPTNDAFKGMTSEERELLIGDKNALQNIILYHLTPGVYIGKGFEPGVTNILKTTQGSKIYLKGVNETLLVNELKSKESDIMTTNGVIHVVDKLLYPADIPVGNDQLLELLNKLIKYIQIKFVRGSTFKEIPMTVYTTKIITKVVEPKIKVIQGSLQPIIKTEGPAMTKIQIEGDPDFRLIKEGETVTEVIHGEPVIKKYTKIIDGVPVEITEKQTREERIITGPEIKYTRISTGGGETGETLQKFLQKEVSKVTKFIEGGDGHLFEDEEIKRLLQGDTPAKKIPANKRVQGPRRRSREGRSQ

[2] = target: EGF8-32-Myc; assay: co-IP; whole-cell lysates of HEK293T cells co-expressing NdEGF-Myc or EGF8-32-Myc and periostin-HA; precipitated with anti-Myc antibody, blotted with anti-HA antibody; lysis buffer 150 mM NaCl, 100 mM Tris-Cl pH 7.4, 1% Triton X-100, 0.5% NP-40

## S1-cleaved heterodimeric Notch1 (N1^EC with N1TM-FLAG) (complex)
[1]
  binding: no binding

B1: periostin-HA (protein, UniProt Q62009 24-838)
chain: NSYYDKVLAHSRIRGRDQGPNVCALQQILGTKKKYFSSCKNWYQGAICGKKTTVLYECCPGYMRMEGMKGCPAVMPIDHVYGTLGIVGATTTQHYSDVSKLREEIEGKGSYTYFAPSNEAWENLDSDIRRGLENNVNVELLNALHSHMVNKRMLTKDLKHGMVIPSMYNNLGLFINHYPNGVVTVNCARVIHGNQIATNGVVHVIDRVLTQIGTSIQDFLEAEDDLSSFRAAAITSDLLESLGRDGHFTLFAPTNEAFEKLPRGVLERIMGDKVASEALMKYHILNTLQCSEAITGGAVFETMEGNTIEIGCEGDSISINGIKMVNKKDIVTKNGVIHLIDEVLIPDSAKQVIELAGKQQTTFTDLVAQLGLASSLKPDGEYTLLAPVNNAFSDDTLSMDQRLLKLILQNHILKVKVGLSDLYNGQILETIGGKQLRVFVYRTAICIENSCMVRGSKQGRNGAIHIFREIIQPAEKSLHDKLRQDKRFSIFLSLLEAADLKDLLTQPGDWTLFAPTNDAFKGMTSEERELLIGDKNALQNIILYHLTPGVYIGKGFEPGVTNILKTTQGSKIYLKGVNETLLVNELKSKESDIMTTNGVIHVVDKLLYPADIPVGNDQLLELLNKLIKYIQIKFVRGSTFKEIPMTVYTTKIITKVVEPKIKVIQGSLQPIIKTEGPAMTKIQIEGDPDFRLIKEGETVTEVIHGEPVIKKYTKIIDGVPVEITEKQTREERIITGPEIKYTRISTGGGETGETLQKFLQKEVSKVTKFIEGGDGHLFEDEEIKRLLQGDTPAKKIPANKRVQGPRRRSREGRSQ
[2]
  binding: binds
